Reference: PMC8575775, “Structural basis of the interaction between SETD2 methyltransferase and hnRNP L paralogs for governing co-transcriptional splicing” (Nature Communications, 2021)
Residue numbers refer to the chain shown, from its start. Names and notes keep the numbering of the source. These are yes or no findings as the source states them, for the method shown. For some of these results: Binding seen in cells or lysates may run through a third protein. Some entries that bind do so weakly or less than the wild type. For some of these results: Tags and fused reporters may be left off the sequences shown. Each block holds one binder with its values, some of them ahead of it.

Columns and labels:
[1] = target: T1, hnRNP L^Y257A RRM2 (human) (UniProt P14866); test: condition: about 600 µM peptide titrated into about 50 µM protein; ITC; SETD2 peptide (about 600 µM, syringe) titrated into the protein (about 50 µM, sample pool); 20 °C; MicroCal PEAQ-ITC; one-site binding model; three independent titrations; both purified
T1 sequence: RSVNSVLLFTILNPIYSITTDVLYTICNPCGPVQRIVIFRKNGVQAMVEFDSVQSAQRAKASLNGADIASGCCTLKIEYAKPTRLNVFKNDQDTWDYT

[2] = target: T2, Halo-SETD2C (1404–2564) (human) (UniProt Q9BYW2); test: pull-down; Halo-tagged bait and tagged prey (mCherry-HA or GFP-FLAG) co-expressed in 293T cells; Halo affinity purification from extracts; western blotting of input and eluate
T2 sequence: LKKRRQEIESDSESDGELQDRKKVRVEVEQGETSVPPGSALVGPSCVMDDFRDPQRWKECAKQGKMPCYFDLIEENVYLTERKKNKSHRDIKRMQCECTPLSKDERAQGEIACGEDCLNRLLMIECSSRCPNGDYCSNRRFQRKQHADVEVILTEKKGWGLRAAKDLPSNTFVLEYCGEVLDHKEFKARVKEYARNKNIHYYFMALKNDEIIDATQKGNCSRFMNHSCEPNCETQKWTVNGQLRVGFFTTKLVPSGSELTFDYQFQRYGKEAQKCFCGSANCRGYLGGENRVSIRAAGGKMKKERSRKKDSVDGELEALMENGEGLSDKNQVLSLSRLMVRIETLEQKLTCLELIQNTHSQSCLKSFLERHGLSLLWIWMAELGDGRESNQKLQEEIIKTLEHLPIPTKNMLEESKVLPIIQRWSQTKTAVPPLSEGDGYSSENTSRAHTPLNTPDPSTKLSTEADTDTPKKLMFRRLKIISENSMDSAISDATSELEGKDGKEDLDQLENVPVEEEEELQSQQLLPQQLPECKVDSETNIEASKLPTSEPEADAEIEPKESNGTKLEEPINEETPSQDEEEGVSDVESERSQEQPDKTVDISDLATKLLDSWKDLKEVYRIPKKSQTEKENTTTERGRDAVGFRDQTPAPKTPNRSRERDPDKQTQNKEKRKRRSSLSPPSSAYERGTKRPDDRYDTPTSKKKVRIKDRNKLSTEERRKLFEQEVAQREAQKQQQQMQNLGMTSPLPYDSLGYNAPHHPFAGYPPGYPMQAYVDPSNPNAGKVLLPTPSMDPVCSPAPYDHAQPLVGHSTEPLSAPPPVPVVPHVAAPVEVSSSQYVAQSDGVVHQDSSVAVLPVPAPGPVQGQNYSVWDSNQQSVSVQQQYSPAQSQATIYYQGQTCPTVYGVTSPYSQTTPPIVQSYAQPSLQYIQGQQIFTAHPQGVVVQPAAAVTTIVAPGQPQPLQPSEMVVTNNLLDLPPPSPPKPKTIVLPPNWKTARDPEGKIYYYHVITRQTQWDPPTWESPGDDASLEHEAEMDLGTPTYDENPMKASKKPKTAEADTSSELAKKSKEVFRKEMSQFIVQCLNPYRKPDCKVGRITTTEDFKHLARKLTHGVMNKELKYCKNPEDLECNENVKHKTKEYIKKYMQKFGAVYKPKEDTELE

[3] = target: T3, Halo-ySet2 (yeast) (UniProt P46995); test: pull-down; Halo-tagged bait expressed in 293T cells, captured from extracts on Magne HaloTag beads (wash 300 mM NaCl), eluted with TEV protease; endogenous preys seen by western blotting and silver staining; for SETD2CΔSRI with and without RNase treatment
T3 sequence: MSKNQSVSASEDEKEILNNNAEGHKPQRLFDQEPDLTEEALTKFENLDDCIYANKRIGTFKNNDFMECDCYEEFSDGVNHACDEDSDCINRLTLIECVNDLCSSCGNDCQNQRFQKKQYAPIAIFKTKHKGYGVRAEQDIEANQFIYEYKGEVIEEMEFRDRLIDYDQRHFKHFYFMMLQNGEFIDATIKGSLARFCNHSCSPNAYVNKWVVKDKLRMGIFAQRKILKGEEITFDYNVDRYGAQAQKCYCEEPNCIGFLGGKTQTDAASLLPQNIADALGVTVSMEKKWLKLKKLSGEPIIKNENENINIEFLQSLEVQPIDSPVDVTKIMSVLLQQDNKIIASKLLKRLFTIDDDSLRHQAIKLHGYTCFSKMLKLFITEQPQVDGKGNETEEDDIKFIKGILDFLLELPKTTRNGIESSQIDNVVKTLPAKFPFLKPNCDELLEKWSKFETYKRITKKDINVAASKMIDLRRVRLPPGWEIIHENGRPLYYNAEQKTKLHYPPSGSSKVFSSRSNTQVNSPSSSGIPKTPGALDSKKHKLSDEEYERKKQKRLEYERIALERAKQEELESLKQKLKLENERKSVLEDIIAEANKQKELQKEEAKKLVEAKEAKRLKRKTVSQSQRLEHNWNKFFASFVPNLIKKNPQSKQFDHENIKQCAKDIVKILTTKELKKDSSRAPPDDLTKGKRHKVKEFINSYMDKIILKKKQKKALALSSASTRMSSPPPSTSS

[4] = target: T4, hnRNP L RRM2 (residues 189-286) (human, UniProt P14866 189-286); test: condition: about 600 µM peptide in the syringe, about 50 µM protein in the cell; ITC; SETD2 peptides (about 600 µM, syringe) titrated into hnRNP L / hnRNP LL proteins (about 50 µM, cell); 20 °C; Microcal PEAQ-ITC; one-site binding model; mean of three independent experiments; both purified
T4 construct: hnRNP L, human, RRM2 fragment, residues 189-286, amplified from a human brain cDNA library; Cloned into a modified pET28a vector without a thrombin cleavage site (p28a); also called hnRNP L RRM2 WT; source: E. coli BL21 (DE3), purified (Ni-NTA, size-exclusion chromatography)
T4 sequence (looked up): T1 sequence with A69Y

[5] = target: T5, hnRNP L RRM2 Y257A (human) (UniProt P14866); test: as above
T5 sequence: T1 sequence

- binding [1]: no binding
B1: SETD2^2167-2192 peptide (peptide, UniProt Q9BYW2 2167-2192)
peptide: YPPGYPMQAYVDPSNPNAGKVLLPTP

- binding [2]: binds
B2: mCherry-HA-hnRNP L FL (WT) (protein, UniProt P14866 1-589)
chain: MSRRLLPRAEKRRRRLEQRQQPDEQRRRSGAMVKMAAAGGGGGGGRYYGGGSEGGRAPKRLKTDNAGDQHGGGGGGGGGAGAAGGGGGGENYDDPHKTPASPVVHIRGLIDGVVEADLVEALQEFGPISYVVVMPKKRQALVEFEDVLGACNAVNYAADNQIYIAGHPAFVNYSTSQKISRPGDSDDSRSVNSVLLFTILNPIYSITTDVLYTICNPCGPVQRIVIFRKNGVQAMVEFDSVQSAQRAKASLNGADIYSGCCTLKIEYAKPTRLNVFKNDQDTWDYTNPNLSGQGDPGSNPNKRQRQPPLLGDHPAEYGGPHGGYHSHYHDEGYGPPPPHYEGRRMGPPVGGHRRGPSRYGPQYGHPPPPPPPPEYGPHADSPVLMVYGLDQSKMNCDRVFNVFCLYGNVEKVKFMKSKPGAAMVEMADGYAVDRAITHLNNNFMFGQKLNVCVSKQPAIMPGQSYGLEDGSCSYKDFSESRNNRFSTPEQAAKNRIQHPSNVLHFFNAPLEVTEENFFEICDELGVKRPSSVKVFSGKSERSSSGLLEWESKSDALETLGFLNHYQMKNPNGPYPYTLKLCFSTAQHAS

- binding [2]: no binding
B3: mCherry-HA-hnRNP L FL I256A Y257A (protein, UniProt P14866 1-589)
chain: B2 chain with I256A, Y257A

- binding [3]: no binding
B4: hnRNP LL (endogenous) (protein, UniProt Q8WVV9 1-542)
chain: MSSSSSSPRETYEEDREYESQAKRLKTEEGEIDYSAEEGENRREATPRGGGDGGGGGRSFSQPEAGGSHHKVSVSPVVHVRGLCESVVEADLVEALEKFGTICYVMMMPFKRQALVEFENIDSAKECVTFAADEPVYIAGQQAFFNYSTSKRITRPGNTDDPSGGNKVLLLSIQNPLYPITVDVLYTVCNPVGKVQRIVIFKRNGIQAMVEFESVLCAQKAKAALNGADIYAGCCTLKIEYARPTRLNVIRNDNDSWDYTKPYLGRRDRGKGRQRQAILGEHPSSFRHDGYGSHGPLLPLPSRYRMGSRDTPELVAYPLPQASSSYMHGGNPSGSVVMVSGLHQLKMNCSRVFNLFCLYGNIEKVKFMKTIPGTALVEMGDEYAVERAVTHLNNVKLFGKRLNVCVSKQHSVVPSQIFELEDGTSSYKDFAMSKNNRFTSAGQASKNIIQPPSCVLHYYNVPLCVTEETFTKLCNDHEVLTFIKYKVFDAKPSAKTLSGLLEWECKTDAVEALTALNHYQIRVPNGSNPYTLKLCFSTSSHL

- binding [4]: no binding
B5: SETD2 2113–2140 fragment (peptide, UniProt Q9BYW2 2113-2140)
peptide: RNKLSTEERRKLFEQEVAQREAQKQQQQ

- binding [2]: no binding
B6: mCherry-HA-hnRNP L 322–589 (domain or fragment, UniProt P14866 322-589)
chain: GGYHSHYHDEGYGPPPPHYEGRRMGPPVGGHRRGPSRYGPQYGHPPPPPPPPEYGPHADSPVLMVYGLDQSKMNCDRVFNVFCLYGNVEKVKFMKSKPGAAMVEMADGYAVDRAITHLNNNFMFGQKLNVCVSKQPAIMPGQSYGLEDGSCSYKDFSESRNNRFSTPEQAAKNRIQHPSNVLHFFNAPLEVTEENFFEICDELGVKRPSSVKVFSGKSERSSSGLLEWESKSDALETLGFLNHYQMKNPNGPYPYTLKLCFSTAQHAS

- binding [5]: no binding
B7: SETD2 2167–2192 peptide (peptide, UniProt Q9BYW2 2167-2192)
peptide: YPPGYPMQAYVDPSNPNAGKVLLPTP
